Some of the results follow.
compound: Cc1cc(ccc1-c1ccccc1)C(=O)N1CCCN(CC1)C(=O)CCl [compound 10]; assay: probe-labelled cysteine peptide fold change vs DMSO (competition) (log2 fold change); higher = less target engagement (more negative = stronger competition); conditions: 10 µM; THP-1; incubation time: 4 h
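Note: competitive profiling in live THP-1 cells: cysteine peptides tagged with an iodoacetamide desthiobiotin (IA-DTB) probe, intensity after compound treatment relative to DMSO-treated cells.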

Protein sequences, listed by entry. Tags and fused reporters are not part of them. Lines headed by an entry give the natural chain unless they say otherwise; changes in a name come on top.
UniProt Q9UJV9: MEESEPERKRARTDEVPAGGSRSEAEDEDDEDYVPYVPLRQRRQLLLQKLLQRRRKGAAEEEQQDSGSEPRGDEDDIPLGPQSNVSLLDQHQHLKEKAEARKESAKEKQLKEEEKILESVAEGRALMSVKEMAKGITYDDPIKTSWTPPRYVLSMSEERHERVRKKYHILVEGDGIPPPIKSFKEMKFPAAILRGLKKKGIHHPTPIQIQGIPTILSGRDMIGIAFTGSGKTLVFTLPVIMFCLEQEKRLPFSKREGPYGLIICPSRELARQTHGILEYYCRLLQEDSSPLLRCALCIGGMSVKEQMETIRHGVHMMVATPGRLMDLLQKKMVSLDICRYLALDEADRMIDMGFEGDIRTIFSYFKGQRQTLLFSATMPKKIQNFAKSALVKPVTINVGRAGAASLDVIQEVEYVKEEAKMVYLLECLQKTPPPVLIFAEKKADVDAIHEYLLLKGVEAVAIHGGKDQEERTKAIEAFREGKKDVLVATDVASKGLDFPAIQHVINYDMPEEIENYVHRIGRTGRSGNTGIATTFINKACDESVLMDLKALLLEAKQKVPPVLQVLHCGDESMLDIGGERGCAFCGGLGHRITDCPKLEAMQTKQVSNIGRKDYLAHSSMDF
UniProt A2RUS2: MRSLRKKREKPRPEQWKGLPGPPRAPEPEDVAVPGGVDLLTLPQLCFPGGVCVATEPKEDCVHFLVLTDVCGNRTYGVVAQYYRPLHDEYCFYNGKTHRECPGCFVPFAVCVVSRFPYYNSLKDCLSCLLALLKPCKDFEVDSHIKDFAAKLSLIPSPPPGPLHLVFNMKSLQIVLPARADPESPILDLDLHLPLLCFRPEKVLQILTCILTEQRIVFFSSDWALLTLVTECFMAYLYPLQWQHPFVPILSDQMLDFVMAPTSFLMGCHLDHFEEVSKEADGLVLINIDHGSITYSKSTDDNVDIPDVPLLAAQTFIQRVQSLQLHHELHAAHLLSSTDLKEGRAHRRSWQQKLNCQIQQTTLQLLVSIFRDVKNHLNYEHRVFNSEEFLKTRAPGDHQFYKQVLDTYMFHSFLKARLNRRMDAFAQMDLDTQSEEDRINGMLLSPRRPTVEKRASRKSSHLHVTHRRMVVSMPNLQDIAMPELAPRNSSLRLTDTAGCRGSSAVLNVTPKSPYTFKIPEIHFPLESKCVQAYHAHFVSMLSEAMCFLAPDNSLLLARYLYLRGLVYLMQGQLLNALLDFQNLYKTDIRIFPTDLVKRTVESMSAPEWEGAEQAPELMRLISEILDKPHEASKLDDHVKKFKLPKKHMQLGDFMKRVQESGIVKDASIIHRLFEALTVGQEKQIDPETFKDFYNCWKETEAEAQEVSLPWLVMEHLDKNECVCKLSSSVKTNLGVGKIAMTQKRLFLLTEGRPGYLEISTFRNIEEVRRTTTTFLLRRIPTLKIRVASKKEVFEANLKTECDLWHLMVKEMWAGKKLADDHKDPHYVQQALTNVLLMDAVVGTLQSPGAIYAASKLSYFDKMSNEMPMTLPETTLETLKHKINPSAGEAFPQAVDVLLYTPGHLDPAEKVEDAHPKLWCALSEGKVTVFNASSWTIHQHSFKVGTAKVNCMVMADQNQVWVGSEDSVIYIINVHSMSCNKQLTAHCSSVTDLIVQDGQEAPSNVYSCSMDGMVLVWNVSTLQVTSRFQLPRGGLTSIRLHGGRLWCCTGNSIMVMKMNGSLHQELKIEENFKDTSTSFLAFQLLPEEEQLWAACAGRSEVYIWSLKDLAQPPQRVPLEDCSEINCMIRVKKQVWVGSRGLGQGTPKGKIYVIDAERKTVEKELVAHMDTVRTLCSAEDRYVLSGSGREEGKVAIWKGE
UniProt Q9NR30: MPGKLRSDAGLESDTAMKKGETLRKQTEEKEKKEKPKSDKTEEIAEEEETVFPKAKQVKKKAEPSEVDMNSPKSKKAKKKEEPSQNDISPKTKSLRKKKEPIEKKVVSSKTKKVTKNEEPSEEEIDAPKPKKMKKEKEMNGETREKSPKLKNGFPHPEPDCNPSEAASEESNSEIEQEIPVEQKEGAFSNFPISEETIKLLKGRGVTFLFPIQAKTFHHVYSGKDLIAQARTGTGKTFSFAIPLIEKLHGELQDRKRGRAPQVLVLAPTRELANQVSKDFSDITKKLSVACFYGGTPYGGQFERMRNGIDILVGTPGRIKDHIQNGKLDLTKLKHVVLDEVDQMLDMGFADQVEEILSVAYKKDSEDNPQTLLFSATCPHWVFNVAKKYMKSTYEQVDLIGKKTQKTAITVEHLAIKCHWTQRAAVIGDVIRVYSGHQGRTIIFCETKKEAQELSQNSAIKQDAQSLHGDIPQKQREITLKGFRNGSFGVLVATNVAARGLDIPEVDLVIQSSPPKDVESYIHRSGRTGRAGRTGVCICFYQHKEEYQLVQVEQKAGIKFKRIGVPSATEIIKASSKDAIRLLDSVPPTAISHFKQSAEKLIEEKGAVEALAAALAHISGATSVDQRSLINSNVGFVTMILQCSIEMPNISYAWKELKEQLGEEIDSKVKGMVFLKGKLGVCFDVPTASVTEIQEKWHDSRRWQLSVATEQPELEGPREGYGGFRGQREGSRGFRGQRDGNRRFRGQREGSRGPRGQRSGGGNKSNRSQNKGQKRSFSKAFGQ
UniProt Q9Y315: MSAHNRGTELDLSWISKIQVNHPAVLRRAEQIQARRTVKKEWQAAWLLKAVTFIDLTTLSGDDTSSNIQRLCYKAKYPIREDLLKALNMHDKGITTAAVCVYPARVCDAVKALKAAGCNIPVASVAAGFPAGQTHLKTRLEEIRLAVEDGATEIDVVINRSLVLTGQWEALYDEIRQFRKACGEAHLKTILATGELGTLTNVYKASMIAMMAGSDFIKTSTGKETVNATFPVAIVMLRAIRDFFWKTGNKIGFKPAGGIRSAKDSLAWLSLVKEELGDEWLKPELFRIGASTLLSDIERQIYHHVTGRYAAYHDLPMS
UniProt Q16698: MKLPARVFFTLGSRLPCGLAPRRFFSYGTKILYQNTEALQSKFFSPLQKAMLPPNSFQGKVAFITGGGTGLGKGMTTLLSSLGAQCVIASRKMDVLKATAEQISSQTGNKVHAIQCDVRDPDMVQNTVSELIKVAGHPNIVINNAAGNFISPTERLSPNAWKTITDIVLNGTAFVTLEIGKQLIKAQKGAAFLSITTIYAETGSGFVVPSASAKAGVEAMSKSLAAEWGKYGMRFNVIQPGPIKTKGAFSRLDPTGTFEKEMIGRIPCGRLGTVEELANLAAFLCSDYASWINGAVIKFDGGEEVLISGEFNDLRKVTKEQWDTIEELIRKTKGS
UniProt Q96QD5: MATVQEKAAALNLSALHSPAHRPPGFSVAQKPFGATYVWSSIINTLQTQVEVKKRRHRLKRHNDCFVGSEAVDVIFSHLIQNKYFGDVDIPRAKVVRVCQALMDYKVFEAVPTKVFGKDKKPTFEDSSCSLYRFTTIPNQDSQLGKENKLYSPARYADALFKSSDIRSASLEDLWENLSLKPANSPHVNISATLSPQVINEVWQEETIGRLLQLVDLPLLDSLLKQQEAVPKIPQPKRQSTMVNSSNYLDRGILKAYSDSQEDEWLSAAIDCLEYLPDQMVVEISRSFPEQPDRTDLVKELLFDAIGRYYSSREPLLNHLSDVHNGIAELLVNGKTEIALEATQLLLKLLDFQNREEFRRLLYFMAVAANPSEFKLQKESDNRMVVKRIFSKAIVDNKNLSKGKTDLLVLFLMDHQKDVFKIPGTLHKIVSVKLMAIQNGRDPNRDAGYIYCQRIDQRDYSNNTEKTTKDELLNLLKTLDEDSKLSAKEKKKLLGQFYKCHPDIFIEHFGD
UniProt Q92499: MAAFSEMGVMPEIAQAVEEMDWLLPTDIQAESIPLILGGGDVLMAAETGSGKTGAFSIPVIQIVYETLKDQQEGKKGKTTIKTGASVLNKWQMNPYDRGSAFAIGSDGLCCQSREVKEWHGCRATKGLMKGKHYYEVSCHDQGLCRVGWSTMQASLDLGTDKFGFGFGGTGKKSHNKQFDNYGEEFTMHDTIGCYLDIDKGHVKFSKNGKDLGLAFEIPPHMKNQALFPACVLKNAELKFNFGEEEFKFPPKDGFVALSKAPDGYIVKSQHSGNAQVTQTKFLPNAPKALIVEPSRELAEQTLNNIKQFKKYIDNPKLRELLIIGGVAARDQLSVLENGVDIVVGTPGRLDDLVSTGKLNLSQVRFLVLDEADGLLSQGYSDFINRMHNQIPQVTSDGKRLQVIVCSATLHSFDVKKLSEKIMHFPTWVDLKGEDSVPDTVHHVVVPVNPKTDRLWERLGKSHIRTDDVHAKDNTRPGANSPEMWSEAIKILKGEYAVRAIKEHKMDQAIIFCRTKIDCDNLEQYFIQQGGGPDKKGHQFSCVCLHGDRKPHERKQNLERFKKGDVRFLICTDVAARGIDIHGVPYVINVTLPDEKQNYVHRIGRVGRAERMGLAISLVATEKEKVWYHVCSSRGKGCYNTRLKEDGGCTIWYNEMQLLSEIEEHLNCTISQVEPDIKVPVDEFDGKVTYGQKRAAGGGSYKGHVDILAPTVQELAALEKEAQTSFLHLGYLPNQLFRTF
UniProt Q7Z3D6: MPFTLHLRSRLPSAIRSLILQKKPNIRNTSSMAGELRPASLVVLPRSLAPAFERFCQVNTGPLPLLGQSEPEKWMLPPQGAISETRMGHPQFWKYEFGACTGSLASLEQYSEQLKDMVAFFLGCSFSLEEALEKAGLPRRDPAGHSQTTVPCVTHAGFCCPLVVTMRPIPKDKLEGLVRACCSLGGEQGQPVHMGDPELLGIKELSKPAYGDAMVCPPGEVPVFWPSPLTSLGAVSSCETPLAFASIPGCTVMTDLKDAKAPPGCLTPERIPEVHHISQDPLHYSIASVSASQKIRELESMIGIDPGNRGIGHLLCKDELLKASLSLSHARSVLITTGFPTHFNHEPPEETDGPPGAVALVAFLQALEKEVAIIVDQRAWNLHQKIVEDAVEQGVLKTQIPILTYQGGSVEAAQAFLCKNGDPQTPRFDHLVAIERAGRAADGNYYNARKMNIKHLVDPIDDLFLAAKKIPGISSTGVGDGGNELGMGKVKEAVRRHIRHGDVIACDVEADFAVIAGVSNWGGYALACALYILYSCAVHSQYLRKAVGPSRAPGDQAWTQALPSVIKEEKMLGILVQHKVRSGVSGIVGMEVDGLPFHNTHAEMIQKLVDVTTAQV
UniProt P52824: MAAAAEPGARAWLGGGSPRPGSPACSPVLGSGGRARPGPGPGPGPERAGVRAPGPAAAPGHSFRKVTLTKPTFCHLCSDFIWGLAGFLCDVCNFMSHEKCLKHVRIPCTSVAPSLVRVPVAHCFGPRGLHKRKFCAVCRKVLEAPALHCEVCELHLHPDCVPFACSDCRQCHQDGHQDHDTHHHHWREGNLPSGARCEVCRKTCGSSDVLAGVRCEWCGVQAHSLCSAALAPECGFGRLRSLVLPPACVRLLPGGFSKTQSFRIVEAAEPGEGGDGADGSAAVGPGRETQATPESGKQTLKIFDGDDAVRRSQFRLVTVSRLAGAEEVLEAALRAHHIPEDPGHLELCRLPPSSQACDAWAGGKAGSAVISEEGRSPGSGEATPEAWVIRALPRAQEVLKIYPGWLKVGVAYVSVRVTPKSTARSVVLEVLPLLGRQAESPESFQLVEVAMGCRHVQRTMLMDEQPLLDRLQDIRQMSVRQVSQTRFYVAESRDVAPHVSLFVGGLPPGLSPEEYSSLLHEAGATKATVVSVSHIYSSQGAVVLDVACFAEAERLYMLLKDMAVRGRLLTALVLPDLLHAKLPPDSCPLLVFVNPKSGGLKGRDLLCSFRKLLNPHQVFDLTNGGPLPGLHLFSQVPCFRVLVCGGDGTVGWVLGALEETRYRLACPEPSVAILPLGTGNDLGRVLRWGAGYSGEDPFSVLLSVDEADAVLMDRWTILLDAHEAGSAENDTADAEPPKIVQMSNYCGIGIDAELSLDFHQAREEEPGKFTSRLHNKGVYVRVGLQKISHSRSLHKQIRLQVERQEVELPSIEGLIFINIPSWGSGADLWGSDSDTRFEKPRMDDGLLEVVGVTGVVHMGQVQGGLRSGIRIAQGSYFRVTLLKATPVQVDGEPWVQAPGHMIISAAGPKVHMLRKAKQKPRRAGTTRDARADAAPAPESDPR
UniProt P35659: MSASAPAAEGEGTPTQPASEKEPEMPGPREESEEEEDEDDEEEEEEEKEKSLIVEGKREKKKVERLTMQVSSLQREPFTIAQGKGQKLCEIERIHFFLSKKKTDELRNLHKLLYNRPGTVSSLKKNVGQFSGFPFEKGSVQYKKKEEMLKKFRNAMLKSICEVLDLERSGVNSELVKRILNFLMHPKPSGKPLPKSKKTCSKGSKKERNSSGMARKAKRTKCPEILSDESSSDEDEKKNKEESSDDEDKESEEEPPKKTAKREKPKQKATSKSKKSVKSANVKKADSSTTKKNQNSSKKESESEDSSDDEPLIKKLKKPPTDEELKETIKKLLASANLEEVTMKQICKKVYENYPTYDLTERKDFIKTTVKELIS

Row | Target | probe-labelled cysteine peptide fold change
1 | DDX41_Q9UJV9_540_ACDESVLMDLK (UniProt Q9UJV9) | -0.00935
2 | DENND3_A2RUS2_695_DFYNCWK (UniProt A2RUS2) | -0.0442
3 | DDX21_Q9NR30_445_TIIFCETK (UniProt Q9NR30) | 0.116
4 | DERA_Q9Y315_118_AAGCNIPVASVAAGFPAGQTHLK (UniProt Q9Y315) | 0.00564
5 | DDX54_Q8TDD1_365_VSCAHIYSALDPTAR (UniProt Q8TDD1) | 0.176
6 | DECR1_Q16698_116_VHAIQCDVRDPDMVQNTVSELIK (UniProt Q16698) | 0.000298
7 | DEPDC7_Q96QD5_65_HNDCFVGSEAVDVIFSHLIQNK (UniProt Q96QD5) | 0.082
8 | DENND4C_Q5VZ89_1086_ILTAALTCPK (UniProt Q5VZ89) | -0.274
9 | DEAF1_O75398_401_ASHPEPHYPGYQDSCQIAPFPEAALPTSHPK (UniProt O75398) | -0.0422
10 | DDX1_Q92499_571_FLICTDVAAR (UniProt Q92499) | 0.102
11 | DDX1_Q92499_122_EWHGCR (UniProt Q92499) | -0.136
12 | DDX5_P17844_320_DYIHINIGALELSANHNILQIVDVCHDVEK (UniProt P17844) | 0.141
13 | DGLUCY_Q7Z3D6_316_GIGHLLCKDELLK (UniProt Q7Z3D6) | -0.162
14 | DGKQ_P52824_638_LLNPHQVFDLTNGGPLPGLHLFSQVPCFR (UniProt P52824) | -0.334
15 | DEK_P35659_161_SICEVLDLER (UniProt P35659) | 0.266
16 | DENND3_A2RUS2_919_LWCALSEGK (UniProt A2RUS2) | 0.202

Two entries picked at random from those above, as already listed:
Row | Target | probe-labelled cysteine peptide fold change
3 | DDX21_Q9NR30_445_TIIFCETK (UniProt Q9NR30) | 0.116
1 | DDX41_Q9UJV9_540_ACDESVLMDLK (UniProt Q9UJV9) | -0.00935

From the supplement of paper PMC12067093, “Discovery and optimisation of a covalent ligand for TRIM25 and its application to targeted protein ubiquitination” (Chemical Science, 2025)
